Assay results as given in US20250257111A1, “Supramolecular Complex of a Biomolecule” (Cambridge Enterprise Limited, priority 2022, published 2025).

Key:
[1] = 1H NMR quantification of on-resin selective isolation from a peptide mixture
[2] = tested on: 1:1 complex of F′GG-CB[8]; test: ITC: secondary association of tripeptides with the 1:1 complex of F′GG-CB[8]; format: binding; settings: for ΔHa / −TΔSa: ITC, 10 mM phosphate buffer pH 7.0, 298 K, averaged with three replicates
Description: Isothermal titration calorimetry (ITC) was employed to study binding thermodynamics of heteropeptide dimerization (FIG. 2c and additional data not shown). Titration of F′GG (3.0 mM) into CB[8](0.1 mM) led to a stepwise binding curve with two transitions at molar ratios of 1.0 and 2.0 (FIG. 2c). The first-step binding constant (K1) is 6.6×10^5 M^−1, while the second-step (K2) is 9.4×10^3 M^−1. This indicates negative cooperativity where K1>K2^18,19,23 Such favourable 1:1 complexation enables secondary access of electron-rich aromatic peptides.
ITC experiments were operated on a Malvern MicroCal Auto-ITC200 apparatus at 298 K in 10 mM phosphate buffer with pH 7.0. In a of 1 injection of 0.6 μL and 32 consecutive injections of 1.2 μL with 90 s intervals between injections. The first data point was removed before analysis. The ITC data were fitted by MicroCal Analysis Centre software using one set of sites model. In a typical experiment for homoternary complexation, the host molecule (CB[8]) was loaded in the sample cell with a concentration of 0.1 mM, and the guest peptide was loaded in the syringe with a concentration of 2.0 mM. The injection and interval settings were the same as above. The first data point was removed from the data set before analysis. The obtained ITC curves were fitted by MicroCal Analysis Centre software using sequential binding model. All parameters were averaged with three replicates, s.d. n=3.

[3] = UV quantification of on-resin recognition of WGG
[4] = UV quantification of insulin on-resin recognition, 8-day storage and on-demand release; format: physicochemical
Description: UV spectra were obtained on a Cary 4000 Ultravioletvisible Spectrometer. A pair of quartz cuvettes with 2 mm gap was used. Double beam mode with a fixed 2 nm spectral bandwidth and baseline correction were selected. In a typical run, 300 μl of 1 mM solution was transferred to the quartz cuvette and was scanned compared to phosphate buffer in D2O. UV spectra were obtained in the linear absorption range (0.2-0.8) for better quantification.
1 N HCl was immediately added to reach acid concentration of 5 mM. […] In a typical experiment, 8 μmol F′GGGGG equivalent of resin H2O suspension was added to a 12 ml syringe with a polyester frit (r=8.0 mm, h=2.0 mm). After H2Owas drained, 8 ml of 0.1 mM CB[8] solution was added to the resin and the plunge and a stopper were assembled to the syringe to form a sealed chamber. The syringe was transferred onto a wrist-action shaker and shaken for 12 hours. […] Then, the liquid (resin-treated solution) in syringe was drained thoroughly and the resin was washed with H2Oonce. After that, 0.8 ml of 2 mM DMADA solution (in 5 mM of HCl) was added to the resin and shaken gently for an additional 3 hours. The solution (released solution) was drained.
The 8-day storage and release experiment was conducted as follows. 9 syringes were prepared each with 8 μmol F′GGGGG equivalent of resin H2Osuspension. […] All syringes with the resin were kept at room temperature. Starting from day 0 to day 8, on each day, a syringe with resin was added with 0.8 ml of 2 mM DMADA solution (to get released solution, one per day). All yielded solutions were analyzed on UV spectroscopy immediately. Numbers to calculate released percentage in FIG. 4g were absorbance at 276 nm.

[5] = cycle 0 (original mixture WGG, KGG, EGG, LGG 1.0 mM, CB[8] 1.0 mM)

Molecule: NC(=O)CNC(=O)CNC(=O)[C@@H](N)CCC(=O)O [EGG] (H-Glu-Gly-Gly-NH2)
- percentage (%) within peptide mixture [1, 5]: 27.7%
- percentage (%) within peptide mixture ([1]; cycle 1 released solution): 12.7%
- percentage (%) within peptide mixture ([1]; cycle 2 released solution): 3.5%
- percentage (%) within peptide mixture ([1]; cycle 3 released solution): 2.4%

Molecule: NC(=O)CNC(=O)CNC(=O)[C@@H](N)Cc1ccccc1 [FGG, (S)-2-amino-N-(2-((2-amino-2-oxoethyl)amino)-2-oxoethyl)-3-phenylpropanamide] (H-Phe-Gly-Gly-NH2)
- ΔHa [2]: -14.4 ± 0.4 kcal/mol
- −TΔSa [2]: 6.8 ± 0.3 kcal/mol

Molecule: NCC(=O)N[C@@H](Cc1ccccc1)C(=O)NCC(N)=O [GFG, (S)—N-(2-amino-2-oxoethyl)-2-(2-aminoacetamido)-3-phenylpropanamide] (H-Gly-Phe-Gly-NH2)
- ΔHa [2]: -9.1 ± 0.4 kcal/mol
- −TΔSa [2]: 2.6 ± 0.4 kcal/mol

Molecule: NCC(=O)NCC(=O)N[C@@H](Cc1ccccc1)C(N)=O [GGF, (S)-2-(2-(2-aminoacetamido)acetamido)-3-phenylpropanamide] (H-Gly-Gly-Phe-NH2)
- ΔHa [2]: -7.5 ± 0.2 kcal/mol
- −TΔSa [2]: 1.5 ± 0.2 kcal/mol

Molecule: NCC(=O)NCC(=O)N[C@@H](Cc1ccc2ccccc2c1)C(N)=O [GGNp, (S)-2-(2-(2-aminoacetamido)acetamido)-3-(naphthalen-2-yl)propanamide] (H-Gly-Gly-[2Nal]-NH2)
- ΔHa [2]: -12.0 ± 0.1 kcal/mol
- −TΔSa [2]: 5.2 ± 0.1 kcal/mol

Molecule: NCC(=O)N[C@@H](Cc1ccc2ccccc2c1)C(=O)NCC(N)=O [GNpG, (S)—N-(2-amino-2-oxoethyl)-2-(2-aminoacetamido)-3-(naphthalen-2-yl)propanamide] (H-Gly-[2Nal]-Gly-NH2)
- ΔHa [2]: -12.7 ± 0.4 kcal/mol
- −TΔSa [2]: 5.6 ± 0.4 kcal/mol

Molecule: NCC(=O)N[C@@H](Cc1c[nH]c2ccccc12)C(=O)NCC(N)=O [GWG, (S)—N-(2-amino-2-oxoethyl)-2-(2-aminoacetamido)-3-(1H-indol-3-yl)propanamide] (H-Gly-Trp-Gly-NH2)
- ΔHa [2]: -11.9 ± 0.1 kcal/mol
- −TΔSa [2]: 5.0 ± 0.1 kcal/mol

Molecule: NCC(=O)N[C@@H](Cc1ccc(O)cc1)C(=O)NCC(N)=O [GYG] (H-Gly-Tyr-Gly-NH2)
- ΔHa [2]: -4.7 ± 0.2 kcal/mol
- −TΔSa [2]: -0.2 ± 0.3 kcal/mol

Molecule: NCCCC[C@H](N)C(=O)NCC(=O)NCC(N)=O [KGG, (S)-2,6-diamino-N-(2-((2-amino-2-oxoethyl)amino)-2-oxoethyl)hexanamide] (H-Lys-Gly-Gly-NH2)
- percentage (%) within peptide mixture [1, 5]: 22.6%
- percentage (%) within peptide mixture ([1]; cycle 1 released solution): 7.9%
- percentage (%) within peptide mixture ([1]; cycle 2 released solution): 2.2%
- percentage (%) within peptide mixture ([1]; cycle 3 released solution): 1.6%

Molecule: CC(C)C[C@H](N)C(=O)NCC(=O)NCC(N)=O [LGG] (H-Leu-Gly-Gly-NH2)
- percentage (%) within peptide mixture [1, 5]: 25.2%
- percentage (%) within peptide mixture ([1]; cycle 1 released solution): 6.7%
- percentage (%) within peptide mixture ([1]; cycle 2 released solution): 7.6%
- percentage (%) within peptide mixture ([1]; cycle 3 released solution): 1.0%

Molecule: NC(=O)CNC(=O)CNC(=O)[C@@H](N)Cc1ccc2ccccc2c1 [NpGG, (S)-2-amino-N-(2-((2-amino-2-oxoethyl)amino)-2-oxoethyl)-3-(naphthalen-2-yl) propanamide] (H-[2Nal]-Gly-Gly-NH2)
- ΔHa [2]: -14.6 ± 0.2 kcal/mol
- −TΔSa [2]: 7.0 ± 0.2 kcal/mol

Molecule: NC(=O)CNC(=O)CNC(=O)[C@@H](N)Cc1c[nH]c2ccccc12 [WGG, (S)-2-amino-N-(2-((2-amino-2-oxoethyl)amino)-2-oxoethyl)-3-(1H-indol-3-yl) propanamide] (H-Trp-Gly-Gly-NH2)
- absorption efficiency for on-resin recognition ([3]; WGG-CB[8] (1.0 mM) with F′GGGGG-resin (10.0 mM), 25° C., 10 min): 77%
- on-resin recycling efficiency ([3]; WGG-CB[8], 3 cycles, same batch of resin, release by DMADA): above 98%
- recognition of free WGG by physical absorption ([3]; without CB[8], F′GGGGG-resin): 19%
- ΔHa [2]: -13.3 ± 0.2 kcal/mol
- −TΔSa [2]: 5.6 ± 0.2 kcal/mol
- ratio of hetero- and homopeptide dimers (R) ([2]; equimolar mixture of F′GG, CB[8] and XGG, social self-sorting): 2291
- final yield of WGG ([1]; after 3 cycles of selective separation (77% x77% x77%)): 45.6%
- percentage (%) within peptide mixture [1, 5]: 26% and 24.5%
- percentage (%) within peptide mixture ([1]; cycle 1 released solution): 72.7%
- percentage (%) within peptide mixture ([1]; cycle 2 released solution): 86.7%
- percentage (%) within peptide mixture ([1]; cycle 3 released solution): > 95% and 95.0%
- yield of the selectively separated WGG ([1]; single cycle): 77%

Molecule: NC(=O)CNC(=O)CNC(=O)[C@@H](N)Cc1ccc(O)cc1 [YGG] (H-Tyr-Gly-Gly-NH2)
- ΔHa [2]: -9.6 ± 0.1 kcal/mol
- −TΔSa [2]: 3.6 ± 0.2 kcal/mol

Molecule: insulin: Insulin (Human Recombinant), purchased; widely-used biopharmaceutical for diabetes treatment
- UV absorbance at 276 nm, original ([4]; day 0): 0.2351 abs
- UV absorbance at 276 nm, resin-treated ([4]; day 0): 0.01213 abs
- UV absorbance at 276 nm, original ([4]; day 2): 0.2351 abs
- UV absorbance at 276 nm, resin-treated ([4]; day 2): 0.00845 abs
- UV absorbance at 276 nm, original ([4]; day 5): 0.2351 abs
- UV absorbance at 276 nm, resin-treated ([4]; day 5): 0.01349 abs
- UV absorbance at 276 nm, original ([4]; day 8): 0.2351 abs
- UV absorbance at 276 nm, resin-treated ([4]; day 8): 0.01162 abs

“And” between values parts separate entries of the source, which are not always exact repeats. Identical values can stand only once. Square brackets hold non-standard residues; d marks the D form. Peptide text beside a SMILES is read from it. 2Nal = N[C@@H](Cc1ccc2ccccc2c1)C(=O)O
